# Patent US6372772B1, “Inhibitors of redox signaling and methods of using same” (Prolx Pharmaceuticals Corporation, priority 1997, dated 2002)
# By UniProt entry, the sequences of proteins in these tests, tags left out. Residues count along the entry.
# UniProt Q16881, 151-649: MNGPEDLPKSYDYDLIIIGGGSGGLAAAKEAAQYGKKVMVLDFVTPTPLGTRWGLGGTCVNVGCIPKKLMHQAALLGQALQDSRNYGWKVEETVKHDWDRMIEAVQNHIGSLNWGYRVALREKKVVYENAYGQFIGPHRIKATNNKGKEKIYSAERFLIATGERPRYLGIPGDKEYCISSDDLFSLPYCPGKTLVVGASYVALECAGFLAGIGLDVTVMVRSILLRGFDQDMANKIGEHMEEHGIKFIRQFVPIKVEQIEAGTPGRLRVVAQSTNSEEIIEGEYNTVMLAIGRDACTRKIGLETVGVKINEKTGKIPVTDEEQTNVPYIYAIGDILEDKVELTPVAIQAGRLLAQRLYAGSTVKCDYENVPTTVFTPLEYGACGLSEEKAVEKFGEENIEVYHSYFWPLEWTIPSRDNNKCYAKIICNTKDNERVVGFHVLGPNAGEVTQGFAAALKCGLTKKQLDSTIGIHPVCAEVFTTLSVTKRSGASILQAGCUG
# UniProt P00390, 44-522: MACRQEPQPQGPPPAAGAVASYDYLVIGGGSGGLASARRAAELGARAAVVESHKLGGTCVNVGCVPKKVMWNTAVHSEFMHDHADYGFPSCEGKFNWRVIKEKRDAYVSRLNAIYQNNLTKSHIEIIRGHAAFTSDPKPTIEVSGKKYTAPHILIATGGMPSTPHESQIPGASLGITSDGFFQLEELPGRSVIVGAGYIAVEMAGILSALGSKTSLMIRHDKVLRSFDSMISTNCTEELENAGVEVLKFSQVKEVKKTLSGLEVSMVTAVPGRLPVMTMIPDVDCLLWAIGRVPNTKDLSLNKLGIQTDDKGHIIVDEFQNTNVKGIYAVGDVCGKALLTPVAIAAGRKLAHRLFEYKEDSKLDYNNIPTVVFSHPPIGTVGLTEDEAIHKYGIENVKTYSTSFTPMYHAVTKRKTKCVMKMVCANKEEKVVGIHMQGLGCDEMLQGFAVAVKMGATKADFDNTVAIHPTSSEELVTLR
# The match of structure and compound is tentative.
# What was measured:
# [1] = biological target: thioredoxin reductase/thioredoxin (Homo sapiens, UniProt Q16881); experiment: thioredoxin reductase/thioredoxin-dependent insulin reduction assay; format: biochemical; conditions: for IC50 (μg/ml) in TR/Trx Assay: Table I, 30 min preincubation; for IC50TRTrx: Table II; for in vitro IC50 TR/Trx (μg/ml): Table III; for TR/TRTrx: ratio of IC50 TR alone and IC50 TR/Trx assay
# [2] = biological target: glutathione reductase (Homo sapiens, UniProt P00390); experiment: glutathione reductase assay (DTNB reduction); format: biochemical; conditions: Table II
# [3] = test system: NCI's panel of 60 human cancer cell lines; conditions: mean 50% growth inhibition concentration, entire cell line panel; cited from earlier work
# [4] = test system: leukemia cell line; conditions: mean 50% growth inhibition concentration; cited from earlier work
# [5] = biological target: thioredoxin reductase (Homo sapiens, UniProt Q16881); experiment: thioredoxin reductase assay (DTNB reduction); conditions: for IC50TR: Table II, thioredoxin reductase alone; for GR/TR: ratio of IC50 glutathione reductase to IC50 thioredoxin reductase
SMILES,IC50 (μg/ml) in TR/Trx Assay [1],IC50TRTrx [1],in vitro IC50 TR/Trx (μg/ml) [1],TR/TRTrx [1],IC50GR [2],GI50 (μg/ml) All Tumors [3],GI50 (μg/ml) Leukemias [4],IC50TR [5],GR/TR [5]
O=C1C=CC(=O)c2c1ccc1c3ccccc3n(Cc3cccc([N+](=O)[O-])c3)c21,1.5 µg/mL,1.50 µg/mL,≦5.0 μg/ml,4.0,28 µg/mL,14.9 µg/mL,10.7 µg/mL,6 µg/mL,5
C=C1C(=O)O[C@H]2[C@H]1[C@@H](OC(=O)C=C(C)C)CC1=C[C@@H](C[C@@]3(C)O[C@@H]23)OC1=O,2.1 µg/mL,2.08 µg/mL,≦5.0 μg/ml,2.4,50 µg/mL,1.3 µg/mL,0.2 µg/mL,5 µg/mL,10
Cn1c2ccccc2c2c(-c3ccccc3)cc3c(c21)C(=O)C=CC3=O,17.0 µg/mL,–,–,–,–,0.8 µg/mL,0.1 µg/mL,–,–
Cc1ccc2c(c1)c1ccc3c(c1n2C)C(=O)C=CC3=O,1.7 µg/mL,1.65 µg/mL,≦5.0 μg/ml,4.2,34 µg/mL,0.8 µg/mL,0.3 µg/mL,7 µg/mL,5
CC(CCC#N)(CCC#N)C(=O)CC(O)(C(F)(F)F)C(F)(F)F,10.0 µg/mL,–,≦10.0 μg/ml,–,–,1.7 µg/mL,0.2 µg/mL,–,–
O=CN/C=C/c1cc(O)ccc1O,4.0 µg/mL,–,≦5.0 μg/ml,–,–,3.1 µg/mL,1.0 µg/mL,–,–
C=C1C(=O)C23CC[C@@H]4C(C)(C(=O)OC)CCCC4(C)[C@@H]2CCC1(O)C3 (some centres unmarked),1.3 µg/mL,1.26 µg/mL,≦5.0 μg/ml,5.6,30 µg/mL,0.5 µg/mL,0.1 µg/mL,7 µg/mL,4
CC(C)=CCC(OC(=O)C=C(C)C)C1=CC(=O)c2c(O)ccc(O)c2C1=O (centres unmarked),0.63 µg/mL,0.63 µg/mL,≦1.0 μg/ml,6.4,15 µg/mL,0.3 µg/mL,0.1 µg/mL,4 µg/mL,4
C=C1C(=O)OC2C1CCC(C)=C1C=CC(=O)C12C (centres unmarked),50.0 µg/mL,–,–,–,–,3.1 µg/mL,1.5 µg/mL,–,–
O=C1OC(OC/C(Br)=C(\Br)COC2OC(=O)C(Cl)=C2Cl)C(Cl)=C1Cl (centres unmarked),0.84 µg/mL,0.84 µg/mL,–,6.0,15 µg/mL,2.7 µg/mL,0.4 µg/mL,5 µg/mL,3
O=C1C=CC2=[N+]([O-])C(c3ccccc3)(c3ccccc3)C(=Nc3ccccc3)C2=C1,3.0 µg/mL,–,–,–,–,1.1 µg/mL,22.2 µg/mL,–,–
CC(=O)OC1C=C(C=O)C(O)(C=O)C2(C)CCCC(C)(C)C12 (centres unmarked),7.0 µg/mL,–,≦10.0 μg/ml,–,–,0.3 µg/mL,0.1 µg/mL,–,–
C=C(CN(C)C)C(=O)c1ccc(OC2OC(COC(C)=O)C(OC(C)=O)C(OC(C)=O)C2OC(C)=O)cc1 (centres unmarked),2.0 µg/mL,2.00 µg/mL,≦5.0 μg/ml,1.5,35 µg/mL,1.7 µg/mL,0.1 µg/mL,3 µg/mL,12
c1ccc(P(c2ccccc2)c2ccccc2)cc1,7.0 µg/mL,–,≦10.0 μg/ml,–,–,3.8 µg/mL,1.1 µg/mL,–,–
COc1ccc2c(c1)c1ccc3c(c1n2C)C(=O)C=CC3=O,35.0 µg/mL,–,–,–,–,1.1 µg/mL,0.2 µg/mL,–,–
Cn1cnc([N+](=O)[O-])c1Sc1nc2ccccc2o1,0.47 µg/mL,0.47 µg/mL,≦0.5 μg/ml,4.3,70 µg/mL,2.4 µg/mL,0.8 µg/mL,2 µg/mL,35

SMILES,IC50 (μg/ml) in TR/Trx Assay [1],IC50TRTrx [1],in vitro IC50 TR/Trx (μg/ml) [1],TR/TRTrx [1],IC50GR [2],GI50 (μg/ml) All Tumors [3],GI50 (μg/ml) Leukemias [4],IC50TR [5],GR/TR [5]
C=C1CC(C)(COc2ccc3c(C)cc(=O)oc3c2)OC1=O (centres unmarked),35.0 µg/mL,–,–,–,–,0.5 µg/mL,0.1 µg/mL,–,–
C=C1CC2(OC1=O)c1ccccc1C=Cc1ccccc12,25.0 µg/mL,–,–,–,–,0.5 µg/mL,0.1 µg/mL,–,–
CC12CCCCC1=C(F)C(F)(F)S2 (centres unmarked),6.7 µg/mL,6.65 µg/mL,≦10.0 μg/ml,7.5,35 µg/mL,7.2 µg/mL,3.8 µg/mL,50 µg/mL,1
O=C1C=CC(=O)c2c1ccc1c3ccccc3n(-c3ccccn3)c21,2.5 µg/mL,–,≦5.0 μg/ml,–,–,8.5 µg/mL,1.8 µg/mL,–,–
C=C1C(=O)OC2CC(C)C3C=CC(=O)C3CC12 (centres unmarked),15.0 µg/mL,–,–,–,–,0.5 µg/mL,0.2 µg/mL,–,–
CN1CN(c2ccccc2)C2(CCN(CCCSc3ccccc3NC(=O)/C=C/c3ccccc3)CC2)C1=O,10.0 µg/mL,–,≦10.0 μg/ml,–,–,2.4 µg/mL,1.9 µg/mL,–,–
CCOC(=O)C(=O)CC(=O)C(Br)C(Br)c1ccc(Cl)cc1 (centres unmarked),1.9 µg/mL,1.89 µg/mL,≦5.0 μg/ml,2.7,80 µg/mL,18.4 µg/mL,7.3 µg/mL,5 µg/mL,16
CC1(c2cccc(C3CCC4(C=CC3=O)OCCO4)c2)OCCO1 (centres unmarked),33.0 µg/mL,–,–,–,–,4.0 µg/mL,1.2 µg/mL,–,–
O=C1C(Br)=CC2(C=C1Br)CCNc1c(O)c3c4c(c12)=NCCC=4C=N3,2.3 µg/mL,–,≦5.0 μg/ml,–,–,0.1 µg/mL,0.01 µg/mL,–,–
O=C1C(Br)=C(c2ccccc2)C(c2ccccc2)=C1c1ccccc1,4.0 µg/mL,–,≦5.0 μg/ml,–,–,1.5 µg/mL,0.4 µg/mL,–,–
C=C(CN(C)C)C(=O)c1ccccc1Cl,1.1 µg/mL,1.08 µg/mL,≦5.0 μg/ml,1.9,3 µg/mL,5.7 µg/mL,2.1 µg/mL,2 µg/mL,2
O=C(C(=O)n1ncc(Cl)c(Cl)c1=O)n1ncc(Cl)c(Cl)c1=O,11.0 µg/mL,–,–,–,–,9.9 µg/mL,3.3 µg/mL,–,–
COc1ccc2c3ccc4c(c3n(C)c2c1)C(=O)C=CC4=O,16.0 µg/mL,–,–,–,–,9.2 µg/mL,1.1 µg/mL,–,–
O=[N+]([O-])/C(C(Cl)=C(Cl)Cl)=C(/Cl)Sc1ccccc1,0.42 µg/mL,–,≦0.5 μg/ml,–,–,0.7 µg/mL,0.1 µg/mL,–,–
COC(=O)C1=CC2CC1C(S(=O)(=O)c1ccccc1)C2S(=O)(=O)c1ccccc1 (centres unmarked),25.0 µg/mL,–,–,–,–,5.8 µg/mL,1.6 µg/mL,–,–
O=S(=O)(/C=C/C=C/S(=O)(=O)c1ccccc1)c1ccccc1,40.0 µg/mL,–,–,–,–,0.5 µg/mL,0.1 µg/mL,–,–
